Measurements taken from paper doi:10.1101/2024.01.10.575110.
No constants are given. Whether binding was seen depends on the method and setting. In cells and extracts the contact can be indirect. Some binding calls cover weakened binding; strength is not graded here.

Sequences of proteins named here, by UniProt entry; tags and fusion partners are left off. A change or cut given only in a name is not applied to a line headed by its entry. A line that says so, or that is headed by a name, gives the form on record, which may keep a tag or linker.
androgen receptor splice variant 7 (AR variant-7) (P10275-3, form named): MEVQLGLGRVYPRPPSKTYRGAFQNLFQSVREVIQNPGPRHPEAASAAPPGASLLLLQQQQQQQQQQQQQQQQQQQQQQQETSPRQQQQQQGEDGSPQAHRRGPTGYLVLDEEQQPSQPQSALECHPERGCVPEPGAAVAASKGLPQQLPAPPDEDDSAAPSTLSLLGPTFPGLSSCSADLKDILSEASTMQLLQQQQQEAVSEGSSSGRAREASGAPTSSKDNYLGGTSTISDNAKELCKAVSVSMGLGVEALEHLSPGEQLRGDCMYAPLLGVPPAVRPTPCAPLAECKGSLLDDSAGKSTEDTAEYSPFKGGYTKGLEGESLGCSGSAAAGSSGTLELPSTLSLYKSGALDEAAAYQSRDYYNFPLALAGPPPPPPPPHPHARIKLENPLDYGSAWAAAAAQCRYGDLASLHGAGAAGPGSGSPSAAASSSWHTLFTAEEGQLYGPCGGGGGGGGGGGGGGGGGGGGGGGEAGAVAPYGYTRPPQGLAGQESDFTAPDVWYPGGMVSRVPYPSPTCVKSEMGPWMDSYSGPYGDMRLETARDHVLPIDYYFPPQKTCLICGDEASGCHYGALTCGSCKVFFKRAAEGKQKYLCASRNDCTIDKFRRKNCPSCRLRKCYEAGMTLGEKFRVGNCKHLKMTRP
UniProt Q92826: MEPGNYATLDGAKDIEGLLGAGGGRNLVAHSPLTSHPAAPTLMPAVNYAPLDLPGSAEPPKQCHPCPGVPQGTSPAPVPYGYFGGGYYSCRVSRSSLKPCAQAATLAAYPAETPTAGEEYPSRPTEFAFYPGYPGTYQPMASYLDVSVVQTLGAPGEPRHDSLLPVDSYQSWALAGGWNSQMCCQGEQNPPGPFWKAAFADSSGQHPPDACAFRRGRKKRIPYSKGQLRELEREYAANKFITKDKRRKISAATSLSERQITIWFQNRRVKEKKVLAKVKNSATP
UniProt P51532: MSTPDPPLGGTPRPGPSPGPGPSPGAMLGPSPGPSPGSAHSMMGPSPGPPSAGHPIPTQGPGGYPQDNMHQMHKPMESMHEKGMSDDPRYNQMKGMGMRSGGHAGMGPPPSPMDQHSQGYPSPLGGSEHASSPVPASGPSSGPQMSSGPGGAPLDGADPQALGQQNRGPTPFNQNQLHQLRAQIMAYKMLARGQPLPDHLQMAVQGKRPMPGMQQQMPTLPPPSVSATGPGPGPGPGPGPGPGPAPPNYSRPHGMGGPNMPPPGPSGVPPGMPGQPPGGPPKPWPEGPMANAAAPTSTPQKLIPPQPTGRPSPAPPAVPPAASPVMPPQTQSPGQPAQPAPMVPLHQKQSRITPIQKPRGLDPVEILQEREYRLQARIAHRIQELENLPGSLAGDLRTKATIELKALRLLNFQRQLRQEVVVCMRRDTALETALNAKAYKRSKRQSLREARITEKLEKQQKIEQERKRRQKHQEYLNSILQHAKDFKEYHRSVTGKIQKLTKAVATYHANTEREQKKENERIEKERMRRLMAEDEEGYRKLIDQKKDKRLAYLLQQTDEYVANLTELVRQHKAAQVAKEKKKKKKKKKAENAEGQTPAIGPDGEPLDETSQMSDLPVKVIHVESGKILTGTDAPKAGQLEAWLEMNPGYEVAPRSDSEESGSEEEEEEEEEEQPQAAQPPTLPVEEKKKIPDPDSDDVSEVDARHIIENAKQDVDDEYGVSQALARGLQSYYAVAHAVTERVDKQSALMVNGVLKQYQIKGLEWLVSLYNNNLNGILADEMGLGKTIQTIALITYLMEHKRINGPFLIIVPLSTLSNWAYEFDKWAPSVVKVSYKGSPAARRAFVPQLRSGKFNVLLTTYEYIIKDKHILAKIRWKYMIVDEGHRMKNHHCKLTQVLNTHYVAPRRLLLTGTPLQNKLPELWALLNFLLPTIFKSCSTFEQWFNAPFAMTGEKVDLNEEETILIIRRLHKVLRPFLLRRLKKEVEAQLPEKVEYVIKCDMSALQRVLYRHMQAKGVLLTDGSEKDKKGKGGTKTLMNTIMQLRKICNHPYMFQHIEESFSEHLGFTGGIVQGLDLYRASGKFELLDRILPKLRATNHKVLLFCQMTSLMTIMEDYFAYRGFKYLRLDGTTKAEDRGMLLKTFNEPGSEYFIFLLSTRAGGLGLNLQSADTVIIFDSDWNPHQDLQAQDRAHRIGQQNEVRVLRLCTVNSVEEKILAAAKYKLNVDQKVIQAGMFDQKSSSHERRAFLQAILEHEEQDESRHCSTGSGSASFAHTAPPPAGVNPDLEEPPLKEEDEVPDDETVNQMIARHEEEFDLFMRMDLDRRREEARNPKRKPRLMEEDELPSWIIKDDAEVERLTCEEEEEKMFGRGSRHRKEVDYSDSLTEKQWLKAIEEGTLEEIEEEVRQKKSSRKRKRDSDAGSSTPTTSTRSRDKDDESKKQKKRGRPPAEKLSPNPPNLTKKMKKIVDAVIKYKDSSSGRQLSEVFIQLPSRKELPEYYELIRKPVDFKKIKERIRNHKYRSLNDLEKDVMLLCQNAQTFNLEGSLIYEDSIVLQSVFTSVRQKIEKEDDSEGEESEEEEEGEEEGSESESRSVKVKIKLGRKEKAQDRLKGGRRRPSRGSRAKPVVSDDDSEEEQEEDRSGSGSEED

What was measured:
[1] = biological target: androgen receptor splice variant 7 (AR variant-7) (human (endogenous in VCaP16)) (UniProt P10275); assay: co-IP
[2] = biological target: HOXB13 (human (endogenous in VCaP16)) (UniProt Q92826); assay: co-IP

binding [1] | binding [2] | Substance
binds | – | BRG1 (from UniProt P51532 1-1647)
binds | – | HOXB13 (from UniProt Q92826 1-284)
– | binds | androgen receptor splice variant 7 (AR variant-7) (from UniProt P10275-3 1-644)
